PubChem BioAssay AID743402 (Broad Institute, 2014)
Screen size: about 1,200 compounds; about 140 (12%) were called active.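 Rule for the calls: active = fitted curve falls past -35% activity change at a dose under twice the top valid dose, in every replicate test; inconclusive = replicate tests disagree on the call; inactive = the rest, including activity in the opposite direction.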 Most of the strongest results are missing from this list.

experiment: restoration of mutant CFTR halide transport – FRT cells, YFP quenching, cherry-pick, dose response (AID 743402); conditions: FRT CFTR-F508del YFP iodide quenching, 24 h, channel opened with forskolin and a potentiator; at 26 µM (top of the series) unless noted;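 note: compounds act as correctors raising surface CFTR-F508del before acute activation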

Activity change, negative = more quenching (active), inactive:
CN(Cc1ccco1)c1ncnc2ccc(-c3ccc4c(ccn4C)c3)cc12 -20%, Cc1ccc(OCCNC(=O)c2cccc(S(=O)(=O)NCc3ccccc3)c2)cc1 3.33%, CCN(CC)c1ccc(/C=N/NC(=O)c2ccco2)c(O)c1 10.7%, O=C1OCC2=C1C(c1ccc3c(c1)OCO3)c1cc3c(cc1O2)OCO3 (stereo not drawn) 3.33%, COc1cc(C(=O)Nc2ccc3c(c2)ncn3C)cc(OC)c1OC 3.12%, COc1ccc(N2CCc3c(C)nc4c(OC)cc(OC)cc4c32)cc1 0%, CCOC(=O)c1ccc(Nc2sc(C(=O)c3cccc([N+](=O)[O-])c3)c(N)c2C#N)cc1 -6.25%, O=C(Nc1ccc(F)cc1)Nc1ccc(N2CCOCC2)c2nonc12 -13.3%, COc1ccc(N=C2C(=O)N3CCCc4cccc2c43)cc1 -1.85%, OC[C@H]1[C@H](c2ccc(C#CC3(O)CCCC3)cc2)[C@H]2CN(Cc3ccccc3F)CCCCN21 -3.12%, Cc1cc(Br)cn2c(Cc3ccsc3)c(-c3ccc(F)cc3)nc12 5.42%, C[C@H](CO)N1C[C@H](C)[C@@H](CN(C)Cc2ccc(Cl)c(Cl)c2)Oc2ccc(NC(=O)Nc3ccc(C(F)(F)F)cc3)cc2CC1=O 10.2% [at 23.5 µM], Nc1ccn(C2OC(CO)C(O)C2O)c(=O)n1 (stereo not drawn) 13.3%, COCC(=O)N1CC2(CCN(Cc3ccccc3)CC2)c2c([nH]c3cc(OC)ccc23)[C@H]1CO -3.12%, O=C(COC(=O)c1cc([N+](=O)[O-])ccc1N1CCOCC1)Nc1c(Cl)cccc1Cl -23.3%, COc1ccc(CNS(=O)(=O)c2cc(-c3cc(C)no3)ccc2C(C)C)cc1 -3.33%, CCOc1ccc(C(=O)NNC(=O)CCNC(=O)c2ccc(Br)cc2)cc1OC 14.3%, O=C(NCCCN1CCOCC1)c1sc2cc(Cl)ccc2c1Cl 6.46%, CC(C)Nc1nc(Nc2ccc(C#N)cc2)c2sccc2n1 -40%, CC(=O)N1CCc2cc(S(=O)(=O)N3c4ccccc4CC3C)ccc21 (stereo not drawn) 0%, COc1ccc(NC(=O)C(=O)c2cn(CC(=O)N3CCCC3)c3ccccc23)cc1OC 0%, CC(=NNC(=S)N(Cc1ccccn1)Cc1ccccn1)c1cnccn1 -6.25%, C[C@H]1CNC(=O)c2c(C(=O)Nc3ccc(CNC(=O)OC(C)(C)C)cc3)ncn21 18.8%, COc1ccc2oc(C(=O)N3CCN(C(=O)c4ccco4)CC3)c(C)c2c1 -3.12%, O=C1C=C(NCCc2cc(Br)c(O)c(Br)c2)C(=O)c2ncccc21 -7.97%, Cc1ccc(C(=O)OCC(=O)NCc2cc(C)c(O)c(C)c2)cc1S(=O)(=O)N1CCCCC1 13.3%, O=C(/C=C/c1ccco1)NC(=S)Nc1nc(-c2ccc3ccccc3c2)cs1 3.33%, Cc1ccc(-c2cccc(-c3cc(=O)oc4ccc(C(C)(C)C)cc34)c2)cc1 20%, NNC(=O)c1[nH]c2ccc(Cl)cc2c1-c1ccccc1 13.3%, Clc1ccc(CSc2nncn2-c2ccc3c(c2)OCCO3)cc1 3.33%, O=C1NC(=Nc2cccnc2)S/C1=C/c1ccc(F)cc1 0%, O=C(O)CCCCCCCCc1cn(Cc2ccc(C(=O)c3ccccc3)cc2)nn1 0%, NC1(C(=O)O)CC1 0%, COc1ccccc1NC(=O)CSc1ccc(-c2ccccn2)nn1 -3.33%, COC(=O)Cc1c(O)ccn(Cc2ccc(Cl)c(Cl)c2)c1=O 0%, O=c1[nH]c(/C=C/c2ccccc2F)nc2ccccc12 9.58%, CCN1CCCC(OC(=O)c2cc(-c3ccccc3Cl)nc3ccccc23)C1 (stereo not drawn) 6.46%, Nc1ccn([C@H]2C[C@H](O)[C@@H](CO)O2)c(=O)n1 12.9%, CC1=Nc2cc(C(=O)NCC3CCCO3)ccc2Sc2ccc(C)cc21 (stereo not drawn) 6.46%, CN(C)S(=O)(=O)c1ccc2c(c1)/C(=C/c1cc3c([nH]1)CCCC3)C(=O)N2 -7.96%, C[C@@H]1CN([C@H](C)CO)C(=O)c2cc(NC(=O)Cc3cn(C)c4ccccc34)ccc2O[C@@H]1CN(C)Cc1ccc(Cl)c(Cl)c1 12.3% [at 23.5 µM], C=C1C(=O)O[C@@H]2[C@H]1[C@@H](OC(=O)/C(C)=C/C)C/C(C)=C\C(=O)/C=C(\C)[C@@H]2O -3.12%, O=S1(=O)CCN(C(CO)c2ccccc2)CC1 (stereo not drawn) -1.51%, S=C(NCc1ccco1)NCC1CCCO1 (stereo not drawn) 10%, Cn1c(CC(=O)NN)c(Sc2ccccc2)c2ccccc21 6.67%, Oc1cc2c(cc1O)C(c1ccccc1)CNCC2 (stereo not drawn) -4.17%, Cc1ccc(-c2nc(CSCC(=O)Nc3cc(C)on3)c(C)o2)cc1 3.33%, C[C@@](Cc1ccc(O)c(O)c1)(NN)C(=O)O 6.46%, CC(=O)NC(c1ccc(Cl)cc1Cl)c1ccc2cccnc2c1O (stereo not drawn) 16.2%, Cc1cc(NC(=O)CN2C(=O)NC3(CCCCCC3)C2=O)ccc1Br 6.67%, COC(=O)[C@H](CCSC)NC(=O)Cn1cc(C)c(=O)[nH]c1=O 13.3%, Cc1cnc(NC(=O)c2ccc3c(c2)OCCO3)s1 -20%, COc1cccc(/C=N/Nc2ncnc(Cl)c2N)c1O -3.33%, O=C(CN(Cc1ccccc1)S(=O)(=O)c1ccc(F)cc1)NCc1cccnc1 0%, COc1ccc(-n2nnnc2C(c2ccccc2)N2CCN(C/C=C/c3ccccc3)CC2)cc1 (stereo not drawn) 21.9%, C#Cc1cc(N2CCN(C(=O)c3ccoc3)CC2)n2nc(-c3cccc(Cl)c3)cc2n1 12.5%, COc1cccc(-c2cnc3c(NC(C)=O)cc(-c4cc(F)ccc4OC)cn23)c1 -10%, COc1ccc(NC(=O)C(CC(=O)O)Cc2ccc(Cl)cc2)cc1 (stereo not drawn) 12.9%, O=C(CCNC(=O)c1ccco1)Nc1nc(-c2ccccc2)cs1 9.79%, CC(Sc1nc2ccccc2c(=O)n1C)C(=O)Nc1ccc2c(c1)OCCO2 (stereo not drawn) 17.5%, Cc1ccc2c(CN3CCN(S(=O)(=O)c4ccc(Cl)cc4)CC3)cc(=O)oc2c1C -12.7%, O=C(Nc1ccc(Cl)cn1)c1cccc2ccccc12 -8.33%, COc1cc(NC(=O)N2CCNC2=O)cc(C(=O)Nc2cccc(C(F)(F)F)c2)c1 -3.33%, Cc1ccccc1S(=O)(=O)N1C[C@@H]2N[C@H](C1)C2c1ccc(-c2cccc(C#N)c2)cc1 (stereo partly drawn) 0%, C[C@@H]1CN([C@@H](C)CO)C(=O)Cc2cc(N(C)C)ccc2O[C@@H]1CN(C)Cc1ccccc1 0%, CCN(Cc1ccccc1)c1ccc(/C=N/N=C(N)N)cc1 13.1%, CN(CC(=O)Nc1cccc(S(=O)(=O)N2CCCC2)c1)CC(=O)Nc1ccc(F)c(F)c1F 13.3%, O=C(N/N=C/c1cccs1)c1cccc(NC(=O)c2ccccc2Cl)c1 23.3%, CC(=O)N1CCc2c(sc(NC(=O)c3ccc4c(c3)OCCO4)c2C#N)C1 4.95%, N=c1sccn1CC(=O)Nc1ccc(S(N)(=O)=O)cc1 -13.9%, O=C(c1ccc(Br)cc1)c1cc([N+](=O)[O-])ccc1N1CCOCC1 0%, CN(Cc1c(F)cccc1Cl)C(=O)c1ccc(NC(=O)CC2SC(N3CCCCC3)=NC2=O)cc1 (stereo not drawn) 3.33%, O=C(NC(Cc1ccccc1)C(=O)N1CCN(S(=O)(=O)c2ccccc2F)CC1)c1ccccc1 (stereo not drawn) 16%, COc1ccc(C#Cc2ccc([C@H]3[C@H]4CN(C(=O)c5ccncc5)CCCCN4[C@H]3CO)cc2)cc1 12.9%, COc1cc(/C=C/C(=O)O)cc(S(=O)(=O)Nc2ccc3cn[nH]c3c2)c1OC 3.33%, Cn1nccc1C(=O)N/N=C/c1c(O)ccc2ccccc12 6.67%, CC1=C(C(=O)NC2CCCCC2C)C2(CCC(C)CC2)OC1=O (stereo not drawn) 10.7%, COc1ccc(Cc2nnc(NC(=O)c3ccc(F)cc3)s2)cc1OC 13.3%, Cn1cccc1C(=O)OCC(=O)NCc1ccc2c(c1)OCO2 -0.208%, Cc1cccc(N2CCN(Cc3cn(C)nc3-c3ccccc3F)CC2)n1 10%, CCS(=O)(=O)N1CC(=O)N2[C@H](C1)[C@@H](c1ccc(C#CCC(C)C)cc1)[C@@H]2CO 5.3%, COc1ccc(S(=O)(=O)N(C(=O)C(C)C)c2ccc3oc(=O)sc3c2)cc1 12.9%, CN1c2ccc(-c3ccc(F)cc3)cc2[C@H]2[C@H](CCN2S(=O)(=O)c2cccc(F)c2)[C@@H]1CO -28.6% [at 9 µM], C[C@H](CO)N1C[C@H](C)[C@H](CN(C)C(=O)c2ccc3c(c2)OCO3)Oc2cc(C#Cc3ccccc3F)ccc2S1(=O)=O 5.3%, Cc1cc(C(=O)N/N=C/c2ccc([N+](=O)[O-])cc2)c2ccccc2n1 7.96%, C=CCN=c1scc(C)n1/N=C/c1ccc(O)c(O)c1 0%, CCOC(=O)C1CCCN(c2nc3ccccc3nc2NS(=O)(=O)c2ccc(C)cc2)C1 (stereo not drawn) 3.33%, O=C(COc1ccc(F)cc1Cl)Nc1cccc(S(=O)(=O)N2CCCCCC2)c1 6.25%
